Results are given in words; binding and its absence hold for the method and conditions named. Binding seen in cells or lysates may run through a third protein. Some results given as binding are weak or reduced against the parent protein; the word gives no strength.

Amino acid sequences for entries named in this document (tags omitted).
UniProt Q16665: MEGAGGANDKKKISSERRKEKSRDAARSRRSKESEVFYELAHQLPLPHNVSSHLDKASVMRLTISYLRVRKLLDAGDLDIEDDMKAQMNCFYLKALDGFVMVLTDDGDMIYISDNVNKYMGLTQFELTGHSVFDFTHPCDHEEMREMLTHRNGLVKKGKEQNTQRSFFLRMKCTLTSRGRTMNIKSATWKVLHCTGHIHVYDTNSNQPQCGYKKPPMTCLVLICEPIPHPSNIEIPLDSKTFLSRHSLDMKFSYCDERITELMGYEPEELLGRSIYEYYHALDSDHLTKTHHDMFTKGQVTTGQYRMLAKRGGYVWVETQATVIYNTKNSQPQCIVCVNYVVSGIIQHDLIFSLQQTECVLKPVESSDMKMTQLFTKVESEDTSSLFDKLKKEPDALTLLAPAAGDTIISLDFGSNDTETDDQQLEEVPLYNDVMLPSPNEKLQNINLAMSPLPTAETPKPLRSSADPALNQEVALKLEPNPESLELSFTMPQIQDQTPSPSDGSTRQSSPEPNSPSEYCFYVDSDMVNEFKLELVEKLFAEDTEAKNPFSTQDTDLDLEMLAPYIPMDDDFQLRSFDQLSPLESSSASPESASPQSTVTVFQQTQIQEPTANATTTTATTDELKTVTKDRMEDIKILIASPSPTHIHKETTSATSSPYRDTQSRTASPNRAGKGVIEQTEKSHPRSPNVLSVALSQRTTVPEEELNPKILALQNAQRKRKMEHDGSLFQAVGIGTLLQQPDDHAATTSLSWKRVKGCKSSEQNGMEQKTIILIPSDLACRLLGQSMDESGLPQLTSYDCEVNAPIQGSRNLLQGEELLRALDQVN

Experimental findings from PMC8645903 are described below.

In this test the target is hypoxia-inducible factor-1α (human (endogenous in BxPC-3/PANC-1)) (UniProt Q16665). The test can be described thus: co-IP; lysates of BxPC-3/PANC-1 cells (Figure 5E legend: BxPC-3/SW1990) under hypoxia for 24 h, transfected with siNC or siZEB1-AS1, with or without ZEB1-OE; immunoprecipitation with anti-HIF-1α or anti-ZEB1 overnight at 4°C, Protein A/G PLUS-Agarose, Western blot.

B1: zinc finger E-box-binding homeobox 1 (protein, UniProt P37275 1-1124)
chain: MADGPRCKRRKQANPRRNNVTNYNTVVETNSDSDDEDKLHIVEEESVTDAADCEGVPEDDLPTDQTVLPGRSSEREGNAKNCWEDDRKEGQEILGPEAQADEAGCTVKDDECESDAENEQNHDPNVEEFLQQQDTAVIFPEAPEEDQRQGTPEASGHDENGTPDAFSQLLTCPYCDRGYKRFTSLKEHIKYRHEKNEDNFSCSLCSYTFAYRTQLERHMTSHKSGRDQRHVTQSGCNRKFKCTECGKAFKYKHHLKEHLRIHSGEKPYECPNCKKRFSHSGSYSSHISSKKCISLIPVNGRPRTGLKTSQCSSPSLSASPGSPTRPQIRQKIENKPLQEQLSVNQIKTEPVDYEFKPIVVASGINCSTPLQNGVFTGGGPLQATSSPQGMVQAVVLPTVGLVSPISINLSDIQNVLKVAVDGNVIRQVLENNQANLASKEQETINASPIQQGGHSVISAISLPLVDQDGTTKIIINYSLEQPSQLQVVPQNLKKENPVATNSCKSEKLPEDLTVKSEKDKSFEGGVNDSTCLLCDDCPGDINALPELKHYDLKQPTQPPPLPAAEAEKPESSVSSATGDGNLSPSQPPLKNLLSLLKAYYALNAQPSAEELSKIADSVNLPLDVVKKWFEKMQAGQISVQSSEPSSPEPGKVNIPAKNNDQPQSANANEPQDSTVNLQSPLKMTNSPVLPVGSTTNGSRSSTPSPSPLNLSSSRNTQGYLYTAEGAQEEPQVEPLDLSLPKQQGELLERSTITSVYQNSVYSVQEEPLNLSCAKKEPQKDSCVTDSEPVVNVIPPSANPINIAIPTVTAQLPTIVAIADQNSVPCLRALAANKQTILIPQVAYTYSTTVSPAVQEPPLKVIQPNGNQDERQDTSSEGVSNVEDQNDSDSTPPKKKMRKTENGMYACDLCDKIFQKSSSLLRHKYEHTGKRPHECGICKKAFKHKHHLIEHMRLHSGEKPYQCDKCGKRFSHSGSYSQHMNHRYSYCKREAEERDSTEQEEAGPEILSNEHVGARASPSQGDSDERESLTREEDEDSEKEEEEEDKEMEELQEEKECEKPQGDEEEEEEEEEVEEEEVEEAENEGEEAKTEGLMKDDRAESQASSLGQKVGESSEQVSEEKTNEA
For the molecule B1, the binding result is “binds”.
